# Assay results

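293T-iDUX4 cells carrying a ZSCAN4-driven Gaussia luciferase and a tet-on Italica luciferase control; the gap between the two luminescence signals is read after 24 h. The test concentration is not given here. Percent difference between the Gaussia and Italica channels; more negative values mean more selective suppression of the DUX4 reporter, and higher values mean less activity.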

Values are in %. The controls that fix the scale are not given here. Common to all entries: measured here: selective DUX4 reporter inhibition. This is a side read-out of the assay, for part of the compounds, not drawn at random.

SMILES: COc1ccc2c3c([nH]c2c1)[C@H](CO)N(Cc1ccccc1OC)CC31CN(C(C)=O)C1
Gaussia minus Italica difference (%): -8.131

SMILES: O=C(CN1CCOCC1)N1CCCCN2[C@@H](CO)[C@H](c3ccc(C#Cc4ccccc4F)cc3)[C@@H]2C1
Gaussia minus Italica difference (%): -8.492

SMILES: CCCNC(=O)N1C[C@@H]2N[C@H](C1)C2c1ccc(-c2ccc(F)cc2)cc1 (stereo not given in full)
Gaussia minus Italica difference (%): -13.04

SMILES: CCS(=O)(=O)N1CC(=O)N2[C@H](CO)[C@@H](c3ccc(C#Cc4cccc(F)c4)cc3)[C@@H]2C1
Gaussia minus Italica difference (%): -4.598

SMILES: COc1ccccc1C#Cc1ccc([C@H]2[C@@H](CO)N3CCCCN(CCC(F)(F)F)C[C@@H]23)cc1
Gaussia minus Italica difference (%): -18.26

SMILES: COc1ccc2c3c([nH]c2c1)[C@@H](CO)N(Cc1ccccc1)CC31CN(C(=O)c2ccccn2)C1
Gaussia minus Italica difference (%): 0.8025

SMILES: CCC(=O)N1CC[C@H]2[C@@H]1c1cc(C#Cc3ccccc3OC)ccc1N(C)[C@H]2CO
Gaussia minus Italica difference (%): -5.577

SMILES: COc1ccc2c3c([nH]c2c1)[C@H](CO)N(C)CC31CCN(S(=O)(=O)c2cccc(F)c2)CC1
Gaussia minus Italica difference (%): 0.4976

SMILES: COc1ccc2c3c(n(C)c2c1)[C@@H](CO)N(C(=O)Nc1ccc(F)cc1)CC31CN(S(=O)(=O)c2cccc(F)c2)C1
Gaussia minus Italica difference (%): 3.267

SMILES: Cc1ccccc1S(=O)(=O)N1CCCCN2[C@H](CO)[C@H](c3ccc(-c4cccnc4)cc3)[C@H]2C1
Gaussia minus Italica difference (%): -7.369

SMILES: Cc1ccc(S(=O)(=O)N[C@H]2C=C[C@H](CC(=O)NCc3ccc(Cl)c(Cl)c3)O[C@H]2CO)cc1
Gaussia minus Italica difference (%): -2.886

SMILES: COc1ccc2c3c([nH]c2c1)[C@@H](CO)N(Cc1cc(F)ccc1F)CC31CCN(C(=O)CN(C)C)CC1
Gaussia minus Italica difference (%): -1.904

SMILES: COc1ccc2c3c([nH]c2c1)[C@H](CO)N(C)CC31CCN(C(=O)c2ccccc2F)CC1
Gaussia minus Italica difference (%): -5.643

SMILES: COc1cccc(-c2ccc([C@H]3[C@H](CO)N4CCCCN(C(=O)c5ccc6c(c5)OCO6)C[C@@H]34)cc2)c1
Gaussia minus Italica difference (%): 24.07

SMILES: CC(=O)N1CC[C@@H]2[C@H](CO)Nc3ccc(C#Cc4ccccc4F)cc3[C@@H]21
Gaussia minus Italica difference (%): -18.16

SMILES: Cc1cccc(S(=O)(=O)N2CC[C@@H]3[C@@H](CO)Nc4ccc(-c5ccccc5F)cc4[C@@H]32)c1
Gaussia minus Italica difference (%): -0.7622

SMILES: Cc1cccc(S(=O)(=O)N2CC[C@@H]3[C@@H](CO)N(C)c4ccc(-c5ccc(C#N)cc5)cc4[C@@H]32)c1
Gaussia minus Italica difference (%): 13.76

SMILES: COc1ccc2c3c([nH]c2c1)[C@@H](CO)N(Cc1ccccc1)CC31CN(C(=O)Nc2cccc(F)c2)C1
Gaussia minus Italica difference (%): -9.225

SMILES: O=C(C1CCC1)N1CC[C@@H]2[C@H](CO)Nc3ccc(-c4cccc(F)c4)cc3[C@@H]21
Gaussia minus Italica difference (%): 4.267

SMILES: O=S(=O)(c1ccc(F)cc1)N1CC[C@@H]2[C@@H](CO)Nc3ccc(-c4ccc(F)cc4)cc3[C@@H]21
Gaussia minus Italica difference (%): -1.071

SMILES: COc1cccc(CN2[C@H](CO)[C@H](c3ccccc3)C23CN(Cc2ccccc2OC)C3)c1
Gaussia minus Italica difference (%): -21.86

SMILES: O=C(Cc1ccncc1)N1CCCCN2[C@@H](CO)[C@@H](c3ccc(C#Cc4ccccc4F)cc3)[C@@H]2C1
Gaussia minus Italica difference (%): -14.95

SMILES: O=C(C[C@@H]1CC[C@@H]2[C@H](COC[C@H](O)CN2C(=O)Nc2ccc(Cl)c(Cl)c2)O1)NCc1ccc(Cl)c(Cl)c1
Gaussia minus Italica difference (%): 1.679

SMILES: COc1ccc(S(=O)(=O)N2C[C@H](O)COC[C@H]3O[C@@H](CC(=O)NCc4ccc(Cl)c(Cl)c4)CC[C@@H]32)cc1
Gaussia minus Italica difference (%): -4.675

SMILES: CCCNC(=O)N1CC(=O)N2[C@H](C1)[C@@H](c1ccc(C#Cc3ccccc3)cc1)[C@@H]2CO
Gaussia minus Italica difference (%): 10.07

SMILES: COc1ccc(S(=O)(=O)N(C)C[C@@H]2OCc3ccccc3-c3ccccc3C(=O)N([C@H](C)CO)C[C@@H]2C)cc1
Gaussia minus Italica difference (%): -10.75

SMILES: O=C(C1CC1)N1CC2(C1)[C@@H](c1ccccc1)[C@@H](CO)N2CC1CCCC1
Gaussia minus Italica difference (%): -13.92

SMILES: COc1ccccc1NC(=O)N1CCCCN2[C@H](CO)[C@H](c3ccc(-c4ccc(C)cc4)cc3)[C@@H]2C1
Gaussia minus Italica difference (%): -4.478

SMILES: CCCN1C[C@H](C)[C@@H](OC)CN(C)C(=O)c2cc(NC(=O)c3cccc(OC)c3)ccc2OC[C@@H]1C
Gaussia minus Italica difference (%): -14.58

SMILES: N#C[C@@H]1[C@@H](c2ccccc2C2=CCCCC2)[C@H](CO)N1C(=O)c1cccc(F)c1
Gaussia minus Italica difference (%): -1.771

SMILES: O=C(C[C@@H]1CC[C@H]2[C@@H](COC[C@@H](O)CN2C(=O)Cc2ccccc2)O1)NC1Cc2ccccc2C1
Gaussia minus Italica difference (%): -3.516

SMILES: COc1ccc2c3c(n(C)c2c1)[C@H](CO)N(C(=O)Nc1cccc(F)c1)CC31CN(C)C1
Gaussia minus Italica difference (%): 4.971

SMILES: COc1ccc(CN2C[C@@H](C)[C@H](OC)CN(C)C(=O)c3cc(NC(=O)c4nc5ccccc5s4)ccc3OC[C@@H]2C)cc1
Gaussia minus Italica difference (%): -6.899

SMILES: C[C@@H]1CN([C@@H](C)CO)C(=O)c2ccccc2-c2ccccc2CO[C@H]1CN(C)C(=O)Nc1cccc(C(F)(F)F)c1
Gaussia minus Italica difference (%): -2.315

SMILES: COc1ccccc1C#Cc1ccc([C@H]2[C@@H](CO)N3CCCCN(S(C)(=O)=O)C[C@H]23)cc1
Gaussia minus Italica difference (%): 0.1375

SMILES: CC(C)CC#Cc1ccc([C@H]2[C@@H](CO)N3C(=O)CN(C(=O)NC4CCCCC4)C[C@@H]23)cc1
Gaussia minus Italica difference (%): 4.934

SMILES: Cc1ccccc1S(=O)(=O)N1CCCCN2[C@H](CO)[C@H](c3ccc(-c4cccnc4)cc3)[C@@H]2C1
Gaussia minus Italica difference (%): -1.955

SMILES: CCCN1CCC2(CC1)CN(Cc1ccc3c(c1)OCO3)[C@H](CO)c1[nH]c3cc(OC)ccc3c12
Gaussia minus Italica difference (%): 10.08

SMILES: C[C@@H]1CN([C@@H](C)CO)C(=O)CCCn2nncc2CO[C@@H]1CN(C)Cc1ccc(Oc2ccccc2)cc1
Gaussia minus Italica difference (%): -10.13

SMILES: CO[C@@H]1CN(C)C(=O)c2cc(NS(=O)(=O)c3cccc(F)c3)ccc2OC[C@H](C)N(Cc2cc(F)ccc2F)C[C@H]1C
Gaussia minus Italica difference (%): -9.584

SMILES: CC(C)c1cn(CC[C@@H]2CC[C@@H](NC(=O)Nc3cc(Cl)cc(Cl)c3)[C@H](CO)O2)nn1
Gaussia minus Italica difference (%): 3.065

SMILES: CC(C)NC(=O)N1CCCCN2[C@@H](CO)[C@@H](c3ccc(C#Cc4ccccc4)cc3)[C@@H]2C1
Gaussia minus Italica difference (%): -1.183

SMILES: O=C(C[C@H]1CC[C@H]2[C@@H](COC[C@@H](O)CN2S(=O)(=O)c2ccc(Cl)cc2)O1)NCc1ccc(Cl)c(Cl)c1
Gaussia minus Italica difference (%): -0.4643

For reference, 5 entries once more:

{"smiles": "COc1ccc2c3c(n(C)c2c1)[C@H](CO)N(C(=O)Nc1cccc(F)c1)CC31CN(C)C1", "Gaussia minus Italica difference (%)": "4.971"}
{"smiles": "CC(C)c1cn(CC[C@@H]2CC[C@@H](NC(=O)Nc3cc(Cl)cc(Cl)c3)[C@H](CO)O2)nn1", "Gaussia minus Italica difference (%)": "3.065"}
{"smiles": "C[C@@H]1CN([C@@H](C)CO)C(=O)c2ccccc2-c2ccccc2CO[C@H]1CN(C)C(=O)Nc1cccc(C(F)(F)F)c1", "Gaussia minus Italica difference (%)": "-2.315"}
{"smiles": "O=C(C[C@@H]1CC[C@H]2[C@@H](COC[C@@H](O)CN2C(=O)Cc2ccccc2)O1)NC1Cc2ccccc2C1", "Gaussia minus Italica difference (%)": "-3.516"}
{"smiles": "COc1ccccc1C#Cc1ccc([C@H]2[C@@H](CO)N3CCCCN(CCC(F)(F)F)C[C@@H]23)cc1", "Gaussia minus Italica difference (%)": "-18.26"}

The results are deposited in PubChem (AID1224904; Broad Institute, 2016).